Total and Unique data for eight molecules are collected here from patent US12729225B2, “Non-canonical SWI/SNF complex and uses thereof” (Dana-Farber Cancer Institute, Inc., priority 2018, dated 2026).

The chains are these.
B1: Ighg1 (protein, UniProt P01868 1-324, looked up)
Ig gamma-1 chain C region …: AKTTPPSVYPLAPGSAAQTNSMVTLGCLVKGYFPEPVTVTWNSGSLSSGVHTFPAVLQSDLYTLSSSVTVPSSPRPSETVTCNVAHPASSTKVDKKIVPRDCGCKPCICTVPEVSSVFIFPPKPKDVLTITLTPKVTCVVVDISKDDPEVQFSWFVDDVEVHTAQTQPREEQFNSTFRSVSELPIMHQDWLNGKEFKCRVNSAAFPAPIEKTISKTKGRPKAPQVYTIPPPKEQMAKDKVSLTCMITDFFPEDITVEWQWNGQPAENYKNTQPIMNTNGSYFVYSKLNVQKSNWEAGNTFTCSVLHEGLHNHHTEKSLSHSPGK
B2: LMNB1 (protein, UniProt P20700 2-583, looked up)
Lamin-B1: ATATPVPPRMGSRAGGPTTPLSPTRLSRLQEKEELRELNDRLAVYIDKVRSLETENSALQLQVTEREEVRGRELTGLKALYETELADARRALDDTARERAKLQIELGKCKAEHDQLLLNYAKKESDLNGAQIKLREYEAALNSKDAALATALGDKKSLEGDLEDLKDQIAQLEASLAAAKKQLADETLLKVDLENRCQSLTEDLEFRKSMYEEEINETRRKHETRLVEVDSGRQIEYEYKLAQALHEMREQHDAQVRLYKEELEQTYHAKLENARLSSEMNTSTVNSAREELMESRMRIESLSSQLSNLQKESRACLERIQELEDLLAKEKDNSRRMLTDKEREMAEIRDQMQQQLNDYEQLLDVKLALDMEISAYRKLLEGEEERLKLSPSPSSRVTVSRASSSRSVRTTRGKRKRVDVEESEASSSVSISHSASATGNVCIEEIDVDGKFIRLKNTSEQDQPMGGWEMIRKIGDTSVSYKYTSRYVLKAGQTVTIWAANAGVTASPPTDLIWKNQNSWGTGEDVKVILKNSQGEEVAQRSTVFKTTIPEEEEEEEEAAGVVVEEELFHQQGTPRASNRSC
B3: ATP5A1 (protein, UniProt P25705 44-553, looked up)
ATP synthase F(1) complex …: QKTGTAEMSSILEERILGADTSVDLEETGRVLSIGDGIARVHGLRNVQAEEMVEFSSGLKGMSLNLEPDNVGVVVFGNDKLIKEGDIVKRTGAIVDVPVGEELLGRVVDALGNAIDGKGPIGSKTRRRVGLKAPGIIPRISVREPMQTGIKAVDSLVPIGRGQRELIIGDRQTGKTSIAIDTIINQKRFNDGSDEKKKLYCIYVAIGQKRSTVAQLVKRLTDADAMKYTIVVSATASDAAPLQYLAPYSGCSMGEYFRDNGKHALIIYDDLSKQAVAYRQMSLLLRRPPGREAYPGDVFYLHSRLLERAAKMNDAFGGGSLTALPVIETQAGDVSAYIPTNVISITDGQIFLETELFYKGIRPAINVGLSVSRVGSAAQTRAMKQVAGTMKLELAQYREVAAFAQFGSDLDAATQQLLSRGVRLTELLKQGQYSPMAIEEQVAVIYAGVRGYLDKLEPSKITKFENAFLSHVVSQHQALLGTIRADGKISEQSDAKLKEIVTNFLAGFEA
B4: DDX17 (protein, UniProt Q92841 1-729, looked up)
Probable ATP-dependent RNA …: MPTGFVAPILCVLLPSPTREAATVASATGDSASERESAAPAAAPTAEAPPPSVVTRPEPQALPSPAIRAPLPDLYPFGTMRGGGFGDRDRDRDRGGFGARGGGGLPPKKFGNPGERLRKKKWDLSELPKFEKNFYVEHPEVARLTPYEVDELRRKKEITVRGGDVCPKPVFAFHHANFPQYVMDVLMDQHFTEPTPIQCQGFPLALSGRDMVGIAQTGSGKTLAYLLPAIVHINHQPYLERGDGPICLVLAPTRELAQQVQQVADDYGKCSRLKSTCIYGGAPKGPQIRDLERGVEICIATPGRLIDFLESGKTNLRRCTYLVLDEADRMLDMGFEPQIRKIVDQIRPDRQTLMWSATWPKEVRQLAEDFLRDYTQINVGNLELSANHNILQIVDVCMESEKDHKLIQLMEEIMAEKENKTIIFVETKRRCDDLTRRMRRDGWPAMCIHGDKSQPERDWVLNEFRSGKAPILIATDVASRGLDVEDVKFVINYDYPNSSEDYVHRIGRTARSTNKGTAYTFFTPGNLKQARELIKVLEEANQAINPKLMQLVDHRGGGGGGGGRSRYRTTSSANNPNLMYQDECDRRLRGVKDGGRRDSASYRDRSETDRAGYANGSGYGSPNSAFGAQAGQYTYGQGTYGAAAYGTSSYTAQEYGAGTYGASSTTSTGRSSQSSSQQFSGIGRSGQQPQPLMSQQFAQPPGATNMIGYMGQTAYQYPPPPPPPPPSRK
B5: RPN1 (protein, UniProt P04843 24-607, looked up)
Dolichyl-diphosphooligosacchar …: ASSEAPPLINEDVKRTVDLSSHLAKVTAEVVLAHLGGGSTSRATSFLLALEPELEARLAHLGVQVKGEDEEENNLEVRETKIKGKSGRFFTVKLPVALDPGAKISVIVETVYTHVLHPYPTQITQSEKQFVVFEGNHYFYSPYPTKTQTMRVKLASRNVESYTKLGNPTRSEDLLDYGPFRDVPAYSQDTFKVHYENNSPFLTITSMTRVIEVSHWGNIAVEENVDLKHTGAVLKGPFSRYDYQRQPDSGISSIRSFKTILPAAAQDVYYRDEIGNVSTSHLLILDDSVEMEIRPRFPLFGGWKTHYIVGYNLPSYEYLYNLGDQYALKMRFVDHVFDEQVIDSLTVKIILPEGAKNIEIDSPYEISRAPDELHYTYLDTFGRPVIVAYKKNLVEQHIQDIVVHYTFNKVLMLQEPLLVVAAFYILFFTVIIYVRLDFSITKDPAAEARMKVACITEQVLTLVNKRIGLYRHFDETVNRYKQSRDISTLNSGKKSLETEHKALTSEIALLQSRLKTEGSDLCDRVSEMQKLDAQVKELVLKSAVEAERLVAGKLKKDTYIENEKLISGKRQELVTKIDHILDAL
B6: FIP1L1 (protein)
chain: MSAGEVERLVSELSGGTGGDEEEEWLYGGPWDVHVHSDLAKDLDENEVERPEEENASANPPSGIEDETAENGVPKPKVTETEDDSDSDSDDDEDDVHVTIGDIKTGAPQYGSYGTAPVNLNIKTGGRVYGTTGTKVKGVDLDAPGSINGVPLLEVDLDSFEDKPWRKPGADLSDYFNYGFNEDTWKAYCEKQKRIRMGLEVIPVTSTTNKITAEDCTMEVTPGAEIQDGRFNLFKVQQGRTGNSEKETALPSTKAEFTSPPSLFKTGLPPSRNSTSSQSQTSTASRKANSSVGKWQDRYGRAESPDLRRLPGAIDVIGQTITISRVEGRRRANENSNIQVLSERSATEVDNNFSKPPPFFPPGAPPTHLPPPPFLPPPPTVSTAPPLIPPPGFPPPPGAPPPSLIPTIESGHSSGYDSRSARAFPYGNVAFPHLPGSAPSWPSLVDTSKQWDYYARREKDRDRERDRDRERDRDRDRERERTRERERERDHSPTPSVFNSDEERYRYREYAERGYERHRASREKEERHRERRHREKEETRHKSSRSNSRRRHESEEGDSHRRHKHKKSKRSKEGKEAGSEPAPEQESTEATPAE
B7: EEF1A1 (protein, UniProt P68104 2-462, looked up)
Elongation factor 1-alpha 1: GKEKTHINIVVIGHVDSGKSTTTGHLIYKCGGIDKRTIEKFEKEAAEMGKGSFKYAWVLDKLKAERERGITIDISLWKFETSKYYVTIIDAPGHRDFIKNMITGTSQADCAVLIVAAGVGEFEAGISKNGQTREHALLAYTLGVKQLIVGVNKMDSTEPPYSQKRYEEIVKEVSTYIKKIGYNPDTVAFVPISGWNGDNMLEPSANMPWFKGWKVTRKDGNASGTTLLEALDCILPPTRPTDKPLRLPLQDVYKIGGIGTVPVGRVETGVLKPGMVVTFAPVNVTTEVKSVEMHHEALSEALPGDNVGFNVKNVSVKDVRRGNVAGDSKNDPPMEAAGFTAQVIILNHPGQISAGYAPVLDCHTAHIACKFAELKEKIDRRSGKKLEDGPKFLKSGDAAIVDMVPGKPMCVESFSDYPPLGRFAVRDMRQTVAVGVIKAVDKKAAGAGKVTKSAQKAQKAK
B8: DDX23 (protein, UniProt Q9BUQ8 1-820, looked up)
Probable ATP-dependent RNA …: MAGELADKKDRDASPSKEERKRSRTPDRERDRDRDRKSSPSKDRKRHRSRDRRRGGSRSRSRSRSKSAERERRHKERERDKERDRNKKDRDRDKDGHRRDKDRKRSSLSPGRGKDFKSRKDRDSKKDEEDEHGDKKPKAQPLSLEELLAKKKAEEEAEAKPKFLSKAEREAEALKRRQQEVEERQRMLEEERKKRKQFQDLGRKMLEDPQERERRERRERMERETNGNEDEEGRQKIREEKDKSKELHAIKERYLGGIKKRRRTRHLNDRKFVFEWDASEDTSIDYNPLYKERHQVQLLGRGFIAGIDLKQQKREQSRFYGDLMEKRRTLEEKEQEEARLRKLRKKEAKQRWDDRHWSQKKLDEMTDRDWRIFREDYSITTKGGKIPNPIRSWKDSSLPPHILEVIDKCGYKEPTPIQRQAIPIGLQNRDIIGVAETGSGKTAAFLIPLLVWITTLPKIDRIEESDQGPYAIILAPTRELAQQIEEETIKFGKPLGIRTVAVIGGISREDQGFRLRMGCEIVIATPGRLIDVLENRYLVLSRCTYVVLDEADRMIDMGFEPDVQKILEHMPVSNQKPDTDEAEDPEKMLANFESGKHKYRQTVMFTATMPPAVERLARSYLRRPAVVYIGSAGKPHERVEQKVFLMSESEKRKKLLAILEQGFDPPIIIFVNQKKGCDVLAKSLEKMGYNACTLHGGKGQEQREFALSNLKAGAKDILVATDVAGRGIDIQDVSMVVNYDMAKNIEDYIHRIGRTGRAGKSGVAITFLTKEDSAVFYELKQAILESPVSSCPPELANHPDAQHKPGTILTKKRREETIFA

In one series the test system is mSWI/SNF complexes. The experiment in a line: mSWI/SNF complex purification with HA-tagged baits and mass spectrometry (peptide counts). Further details: species or system human. Conditions: 293_HA-BRD7: HA-BRD7 bait purification, total peptide count per co-purified protein.
Molecule B1 had a Total of 10.
B2 gave a Total of 32.
Same read-out and setting: in the case of B3 it was 32.
The same measure, in the same setting: in the case of B4 it was 13; in that of B5, 15.
Still for that read-out and setting: in the case of B6 it was 16; in that of B7, 12.

Staying with this series, now noted: 293_HA-BRD7: HA-BRD7 bait purification, unique peptide count per co-purified protein.
Molecule B1 displayed a Unique of 6.
With B2, the Unique worked out at 31.
The same measure, in the same setting: in the case of B3 it was 27; in that of B4, 13.
Same read-out and setting: in the case of B5 it was 15; in that of B6, 12.
The same measure, in the same setting: in the case of B7 it was 11.

Staying with this series, now noted: 293_HA-BRD7 bait purification, mass spectrometry; total peptides per co-purified protein.
Consider B8, for which the Total amounted to 3.

The series is the same for the next values; noted with them: 293_HA-BRD7 bait purification, mass spectrometry; unique peptides per co-purified protein.
B8 displayed a Unique of 3.

Staying with this series, now noted: 293_HA-DPF2 purification, total peptides.
As to B1, the Total is given as 1.
For B3, the Total was determined as 4.

The same series, now with this note: 293_HA-DPF2 purification, unique peptides.
As for B1, the Unique came out at 1.
B3: the Unique amounted to 3.

Still in this series, the particulars now being: total peptide count of the co-purified protein; 293_HA-BRD9 (HA-BRD9 bait, mass spectrometry), Table 3b.
For B1, the Total was 5.
Take B2: the Total stood at 8.
The molecule B3 registered a Total of 13.
Still for that read-out and setting: in the case of B4 it was 5.
On the same count and under the same terms, to B5 belongs 3; to B6, 3; to B8, 6.
Same read-out and setting: to B7 belongs 4.

The series is the same for the next values; noted with them: unique peptide count of the co-purified protein; 293_HA-BRD9 (HA-BRD9 bait, mass spectrometry), Table 3b.
Turning to B1, the Unique came out at 4.
Turning to B2, the Unique amounted to 8.
Molecule B3 displayed a Unique of 12.
On the same count and under the same terms, in the case of B4 it was 5; in that of B5, 3.
B6 returned a Unique of 3.
Same read-out and setting: in the case of B8 it was 6.
On the same count and under the same terms, to B7 belongs 4.
